Results of single-concentration screens

Amino acid sequences for entries named in this document (tags omitted). Residues count along the entry.
UniProt Q4DA54, 1-478: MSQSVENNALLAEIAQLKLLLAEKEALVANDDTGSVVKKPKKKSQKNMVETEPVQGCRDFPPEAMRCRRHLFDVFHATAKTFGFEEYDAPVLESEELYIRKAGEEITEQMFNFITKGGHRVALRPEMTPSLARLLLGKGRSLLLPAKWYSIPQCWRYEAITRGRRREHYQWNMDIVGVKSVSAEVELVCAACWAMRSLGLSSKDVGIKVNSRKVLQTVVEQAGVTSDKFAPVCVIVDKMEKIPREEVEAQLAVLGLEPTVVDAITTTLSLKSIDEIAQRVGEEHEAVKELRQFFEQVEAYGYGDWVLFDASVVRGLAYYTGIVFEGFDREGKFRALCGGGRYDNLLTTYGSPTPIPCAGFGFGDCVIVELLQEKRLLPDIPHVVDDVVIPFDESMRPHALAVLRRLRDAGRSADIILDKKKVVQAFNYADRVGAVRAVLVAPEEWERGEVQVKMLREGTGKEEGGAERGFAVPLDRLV
UniProt A4I591, 1-473: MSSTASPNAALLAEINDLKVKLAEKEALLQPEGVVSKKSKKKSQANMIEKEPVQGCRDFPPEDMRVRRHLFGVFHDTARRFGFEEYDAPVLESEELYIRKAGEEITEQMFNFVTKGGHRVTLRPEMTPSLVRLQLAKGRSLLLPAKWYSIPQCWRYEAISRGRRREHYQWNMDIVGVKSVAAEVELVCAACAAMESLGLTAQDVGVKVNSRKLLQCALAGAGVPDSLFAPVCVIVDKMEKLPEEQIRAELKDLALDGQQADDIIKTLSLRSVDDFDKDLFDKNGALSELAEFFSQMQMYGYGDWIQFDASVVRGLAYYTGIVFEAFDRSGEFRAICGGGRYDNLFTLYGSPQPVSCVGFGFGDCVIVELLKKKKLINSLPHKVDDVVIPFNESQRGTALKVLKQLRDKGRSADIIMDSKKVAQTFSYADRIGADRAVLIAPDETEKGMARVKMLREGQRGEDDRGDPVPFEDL
UniProt Q8IDJ8, 1-583: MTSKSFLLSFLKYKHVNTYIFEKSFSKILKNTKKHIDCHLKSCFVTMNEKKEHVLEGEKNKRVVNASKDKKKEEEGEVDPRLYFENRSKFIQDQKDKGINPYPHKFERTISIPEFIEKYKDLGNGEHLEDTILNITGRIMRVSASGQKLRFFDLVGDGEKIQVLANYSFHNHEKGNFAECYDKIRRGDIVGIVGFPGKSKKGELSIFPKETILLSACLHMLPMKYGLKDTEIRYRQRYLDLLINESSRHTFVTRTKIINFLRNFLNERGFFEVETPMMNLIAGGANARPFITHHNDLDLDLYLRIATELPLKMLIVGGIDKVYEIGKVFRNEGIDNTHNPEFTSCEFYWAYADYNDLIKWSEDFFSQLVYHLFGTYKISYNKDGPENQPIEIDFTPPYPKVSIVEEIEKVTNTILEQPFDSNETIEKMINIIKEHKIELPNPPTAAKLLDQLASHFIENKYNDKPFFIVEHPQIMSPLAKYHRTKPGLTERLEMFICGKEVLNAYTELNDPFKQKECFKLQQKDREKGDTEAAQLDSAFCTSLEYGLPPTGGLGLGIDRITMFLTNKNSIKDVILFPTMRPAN
UniProt P9WNZ1, whole entry: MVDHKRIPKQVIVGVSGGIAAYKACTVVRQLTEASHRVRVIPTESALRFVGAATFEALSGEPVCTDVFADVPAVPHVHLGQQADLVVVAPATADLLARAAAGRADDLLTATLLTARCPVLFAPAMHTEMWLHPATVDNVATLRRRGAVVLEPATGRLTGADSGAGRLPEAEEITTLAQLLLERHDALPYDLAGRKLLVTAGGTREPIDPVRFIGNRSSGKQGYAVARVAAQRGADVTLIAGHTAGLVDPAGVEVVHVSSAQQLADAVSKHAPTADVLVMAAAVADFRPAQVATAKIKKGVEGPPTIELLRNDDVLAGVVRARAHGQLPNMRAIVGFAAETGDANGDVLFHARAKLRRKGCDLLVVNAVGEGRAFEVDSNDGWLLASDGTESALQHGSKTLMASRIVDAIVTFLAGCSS

From ChEMBL document CHEMBL3988442, “University of Dundee, Small-Polar-MMV Screening Library” (2021).

TcHisRS: 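Enzyme assay of histidyl-tRNA synthetase; the read-out is not stated. Target: Histidine-tRNA ligase, Trypanosoma cruzi CL Brener (UniProt Q4DA54). Compounds at 30 µM. Higher reads as stronger inhibition (inferred: compounds with an IC50 in retests scored well above the rest). Size under these conditions: about 69,000 compounds, about 31 of them at 50% or above in at least one test.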
LiHisRS: 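Histidine-tRNA ligase, Leishmania infantum (UniProt A4I591). Enzyme assay of histidyl-tRNA synthetase; the read-out is not stated. Compounds at 30 µM. Higher reads as stronger inhibition (inferred: compounds with an IC50 in retests scored well above the rest). The assay is labelled LdHisRS but filed under L. infantum. About 69,000 compounds were tested under these conditions; 0.6% (about 410) showed 50% or more at least once.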
Toxoplasma: 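Assay of Toxoplasma gondii numbers, read through their beta-galactosidase reporter with a colour substrate. Compounds at 10 µM. The record gives no direction; the compounds picked for IC50 retests had high values, so higher reads as fewer parasites. About 67,000 compounds were tested under these conditions; 0.38% (about 260) showed 50% or more at least once.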
PfKRS1: 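Lysine-tRNA ligase, Plasmodium falciparum 3D7 (UniProt Q8IDJ8). Enzyme assay of the cytosolic lysyl-tRNA synthetase in 384-well plates, read by luminescence. Concentration: 30 µM. Direction is inferred from only a few compounds that gave an IC50; most scored high, so higher reads as stronger inhibition. About 69,000 compounds were tested under these conditions; 0.071% (about 49) showed 50% or more at least once.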
CoaBC: 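Enzyme assay of CoaBC with a phosphate dye (Biomol Green) read at 650 nm. Target: Coenzyme A biosynthesis protein CoaBC, Mycobacterium tuberculosis (UniProt P9WNZ1). Compounds at 30 µM. Direction is inferred from only a few compounds that gave an IC50; most scored high, so higher reads as stronger inhibition. Most strong results did not repeat in a second test. About 67,000 compounds were tested under these conditions; 0.06% (about 40) showed 50% or more at least once.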

Results are given as percent effect. The record does not define 0% and 100%; most values in the screen are far below 50% and negative numbers occur (in some assays of this library far below -100). This is an unselected part of the compounds tested. A dash means the value is not listed here; it may have been measured.

With O=C(O)C(F)(F)F.O=C(O)C(F)(F)F.c1cnc(N2CCOCC3(CCCN(Cc4cccs4)C3)C2)nc1 (stereo not shown) the screen gave Toxoplasma: -6.638%.
With O=C(c1ccncc1)N1CCN(c2ccc(F)cc2Cl)CC1 the screen gave TcHisRS: 3.226%; LiHisRS: 13.13%; Toxoplasma: -8.522%; PfKRS1: 1.67%; CoaBC: 4.348%.
With Fc1cccc(N2CCCC3(CN(Cc4ccco4)CCO3)C2)c1.O=C(O)C(F)(F)F.O=C(O)C(F)(F)F (stereo not shown) the screen gave Toxoplasma: 17.66%.
With [H][C@]12CCC(=O)N(c3cccnc3)[C@@]1([H])CCN2C(=O)c1cnccn1 the screen gave Toxoplasma: -11.13%.
With O=C1[C@H]2CC[C@H](CN(S(=O)(=O)c3ccccc3)C2)N1Cc1cscn1 the screen gave TcHisRS: 2.479%; LiHisRS: 0%; PfKRS1: -7.992%; CoaBC: 7.527%.
With C[C@@H]1CN(C2CCN(Cc3nn(C)c4cccc(Cl)c34)CC2)C[C@H](C)O1 the screen gave TcHisRS: 1.02%; LiHisRS: 11.57%; Toxoplasma: -7.104%; PfKRS1: 4.936%; CoaBC: 4.12%.
With Cl.Cl.Cn1cnc2c(N3CCCC3)nc(C3CCNCC3)cc21 the screen gave Toxoplasma: -0.3205%.
With O=C(O)C(F)(F)F.O=C(O)C(F)(F)F.[H][C@@]12COC[C@]1(CN(C)C)CN(Cc1cc(C)on1)C2 the screen gave Toxoplasma: -0.8069%.
With O=C(O)C(F)(F)F.[H][C@@]12CN(c3nnc(C)s3)C[C@H](C(=O)NCC3CC3)[C@]1([H])CCO2 the screen gave Toxoplasma: -2.993%.
With O=C(CC1CCCC1)N1CCC2(CCN2Cc2ccc(F)cc2)C1.O=C(O)C(F)(F)F (stereo not shown) the screen gave Toxoplasma: -4.771%.
With CS(=O)(=O)CCCNc1cccc(COC2CCCCC2)c1 the screen gave TcHisRS: 4.02%; LiHisRS: 8.235%; Toxoplasma: -10.27%; PfKRS1: 0.9541%; CoaBC: 7.443%.
With CCC(CO)NCc1ccc(-c2ccc(Cl)cc2)o1 (stereo not shown) the screen gave TcHisRS: 4.124%; LiHisRS: 8.046%; PfKRS1: 3.43%; CoaBC: 1.79%.
With CN(CC(=O)NCC(O)c1cccc(F)c1)C(=O)OC(C)(C)C (stereo not shown) the screen gave TcHisRS: 0%; LiHisRS: 16.13%; Toxoplasma: 2.308%; PfKRS1: 6.573%; CoaBC: 3.273%.
With O=C(c1ccc2nncn2c1)N1CCCC(n2ccnc2)C1 (stereo not shown) the screen gave TcHisRS: 5.747%; LiHisRS: 15.65%; Toxoplasma: 2.816%; PfKRS1: -0.9229%; CoaBC: 2.968%.
With CC(=O)N1CCCn2nc(CNS(=O)(=O)N3CCC(C)CC3)cc2C1 the screen gave TcHisRS: 0%; LiHisRS: 7.792%; Toxoplasma: -10.81%; PfKRS1: -0.6629%; CoaBC: 0.2554%.
With CC(CNCc1ccc2c(c1)n(C)c(=O)n2C)Oc1ccccn1.Cl (stereo not shown) the screen gave Toxoplasma: -12.37%.

Some entries from above, unchanged:

Compound	TcHisRS	LiHisRS	Toxoplasma	PfKRS1	CoaBC
O=C(O)C(F)(F)F.O=C(O)C(F)(F)F.[H][C@@]12COC[C@]1(CN(C)C)CN(Cc1cc(C)on1)C2	-	-	-0.8069%	-	-
O=C(c1ccncc1)N1CCN(c2ccc(F)cc2Cl)CC1	3.226%	13.13%	-8.522%	1.67%	4.348%